# The supplement of paper PMC5355238
# Structures can show the parent of a compound that is named as a salt. The list shows a part of the results. Repeats are few or missing, and single values can be far off.
# Test system: Reh
# Test: S-phase gammaH2AX median, Z-score vs plate median (drug alone); higher = more S-phase DNA damage
# Conditions: MK1775 concentration 0 nM; 10 µM; 4 h
row,SMILES,S-phase gammaH2AX median (Z-score)
1,COc1cc(N2CCC(N3CCN(C)CC3)CC2)ccc1Nc1ncc(Cl)c(Nc2ccccc2S(=O)(=O)C(C)C)n1,-0.192
2,N[C@@H](CCC(=O)N[C@@H](CSN=O)C(=O)NCC(=O)O)C(=O)O [S-Nitrosoglutathione],0.187
3,CCCCC#Cc1nc(N)c2ncn([C@@H]3O[C@H](C(=O)NCC)[C@@H](O)[C@H]3O)c2n1,-0.23
4,CC(CCc1ccc(O)cc1)NCCc1ccc(O)c(O)c1 (stereo not given) [Dobutamine hydrochloride],-0.211
5,O=c1cc(O)cc(/C=C/c2ccc(O)c(O)c2)o1 [Hispidin],-0.101
6,COc1cc2ncnc(Nc3ccc(Oc4ccccc4)cc3)c2cc1OC,-0.0452
7,O=C1C(Cl)=C(NCCN2CCOCC2)C(=O)c2ncccc21,2.3
8,O=c1[nH]c(=O)n([C@H]2C[C@H](O)[C@@H](CO)O2)cc1/C=C/Br [(E)-5-(2-Bromovinyl)-2'-deoxyuridine],0.0563
9,Cn1c(=O)c(F)c(Nc2ccc(I)cc2F)c2c(=O)n(C[C@@H](O)CO)cnc21,0.242
10,CC(C)N(CCC(=O)c1ccc2ccccc2c1)Cc1ccccc1,0.097
11,CNC1(C)C2CCC(C2)C1(C)C (stereo not given) [Mecamylamine hydrochloride],0.121
12,c1ccc2c(-c3cnn4cc(-c5ccc(N6CCNCC6)cc5)cnc34)ccnc2c1,-0.271
13,CC(C)(Oc1ccc(C2CC2(Cl)Cl)cc1)C(=O)O (stereo not given) [Ciprofibrate],0.0583
14,Nc1nc(Nc2ccc(S(N)(=O)=O)cc2)nn1C(=O)c1c(F)cccc1F,-0.07
15,CC(C)c1onc(-c2c(Cl)cccc2Cl)c1COc1ccc(/C=C/c2cccc(C(=O)O)c2)c(Cl)c1,-0.0468
16,O=C(O)CCC/C=C\C[C@@H]1[C@@H](/C=C/[C@H](O)C2Cc3ccccc3C2)[C@@H](F)C[C@@H]1O,-0.0485
17,Cc1[nH]c(/C=C2\C(=O)Nc3ccc(S(=O)(=O)Cc4c(Cl)cccc4Cl)cc32)c(C)c1C(=O)N1CCC[C@@H]1CN1CCCC1,-0.00812
18,COc1cc2c(cc1OC)CN(CCc1ccc(NC(=O)c3cccc4c(=O)c5cccc(OC)c5[nH]c34)cc1)CC2 [Elacridar],-0.0746
19,CCn1c(-c2nonc2N)nc2cnc(Oc3cccc(NC(=O)c4ccc(OCCN5CCOCC5)cc4)c3)cc21,-0.0182
20,Cn1cnc2c(NC3CCCC3)ncnc21 [N6-Cyclopentyl-9-methyladenine],0.0781
21,CC[C@]1(O)C[C@@H]2CN(CCc3c([nH]c4ccccc34)[C@@](C(=O)OC)(c3cc4c(cc3OC)N(C)[C@H]3[C@@](O)(C(=O)OC)[C@H](OC(C)=O)[C@]5(CC)C=CCN6CC[C@]43[C@@H]65)C2)C1 [Vinblastine],-0.0553
22,CC[C@]1(O)C[C@@H]2CN(CCc3c([nH]c4ccccc34)[C@@](C(=O)OC)(c3cc4c(cc3OC)N(C)[C@H]3[C@@](O)(C(=O)OC)[C@H](OC(C)=O)[C@]5(CC)C=CCN6CC[C@]43[C@@H]65)C2)C1 [Vinblastine sulfate salt],0.147
23,Cn1cnc(N)c2ncnc1-2 [3-Methyladenine],0.0994
24,CC(=O)NCCc1ccc(O)c(O)c1 [N-Acetyldopamine monohydrate],0.00194
25,Nc1nccc2c1ncn2[C@@H]1O[C@H](CO)[C@@H](O)[C@H]1O [3-deazaadenosine],-0.0945

row,SMILES,S-phase gammaH2AX median (Z-score)
1,N[C@@H](Cc1ccc(F)cc1)C(=O)O [p-Fluoro-L-phenylalanine],-0.0819
2,CCCC(C(=O)OCCN(CC)CC)(c1ccccc1)c1ccccc1 [SKF-525A hydrochloride],-0.123
3,COc1cc(CC(=O)O)ccc1O [4-Hydroxy-3-methoxyphenylacetic acid],-0.18
4,Clc1ccccc1C(c1ccccc1)(c1ccccc1)n1ccnc1 [Clotrimazole],-0.0757
5,NC(=O)NO [Hydroxyurea],-0.142
6,Cc1c(CC(C)(C)C(=O)O)n(Cc2ccc(Cl)cc2)c2ccc(F)cc12,0.201
7,"CN(C)C(=O)N=NC(=O)N(C)C [N,N,N',N'-Tetramethylazodicarboxamide]",-0.00945
8,CC(=O)OC(C)C[N+](C)(C)C (stereo not drawn) [Acetyl-beta-methylcholine chloride],0.0175
9,C=CCc1ccccc1OCC(O)CNC(C)C (stereo not given) [Alprenolol hydrochloride],-0.00971
10,Cc1nc(N=Nc2ccc(S(=O)(=O)O)cc2S(=O)(=O)O)c(COP(=O)(O)O)c(C=O)c1O,0
11,CCCCC[C@H](CC(=O)NO)C(=O)N[C@H](C(=O)N1CCC[C@H]1CO)C(C)C [Actinonin],0.0408
12,CN(C)CCC(c1ccccc1)c1ccccn1 (stereo not given) [Pheniramine maleate],-0.00473
13,"COC1=C(OC)C(=O)c2ccccc2C1=O [2,3-Dimethoxy-1,4-naphthoquinone]",-0.0661
14,CCOc1ccc(Cc2cc([C@@H]3O[C@H](CO)[C@@H](O)[C@H](O)[C@H]3O)ccc2Cl)cc1 [Dapagliflozin],0.0445
15,CC(C)NCC(O)COc1cccc2ccccc12 (stereo not given) [(?)-Propranolol hydrochloride],-0.0378
16,Oc1c2ccccc2c2c3c(cccc13)N=N2,0.0252
17,C=C(C)[C@@H]1CC=C(C(=O)O)CC1 [(-)-Perillic acid],-0.0473
18,COC(=O)[C@@H]1[C@H]2C[C@H]3c4[nH]c5ccccc5c4CCN3C[C@@H]2CC[C@@H]1O [Yohimbine hydrochloride],0.3
19,CC(C)C[C@H](NC(=O)[C@H]1O[C@@H]1C(=O)O)C(=O)NCCCCN=C(N)N,-0.0945
20,CN(C)Cc1ccc(-c2nc3cccc4c3n2CCNC4=O)cc1,0.194
21,Cc1[nH]c(/C=C2\C(=O)Nc3ccc(S(=O)(=O)N(C)c4cccc(Cl)c4)cc32)c(C)c1C(=O)N1CCN(C)CC1,0.000387
22,CC1(C)NC(=O)N(c2ccc([N+](=O)[O-])c(C(F)(F)F)c2)C1=O [Nilutamide],-0.168
23,N#C/C(=C/c1ccc(O)c(O)c1)C(=O)N1CCc2ccccc21 [Tyrphostin AG 528],0.327
24,O=C1CCc2cc(OCCCCc3nnnn3C3CCCCC3)ccc2N1 [Cilostazol],-0.0388
25,"O=C(O)[C@H]1C[C@H](C(=O)O)N1 (relative stereo) [trans-Azetidine-2,4-dicarboxylic acid]",0.0971

# Quoted from the listing:
# In S-phase gammaH2AX median (Z-score), O=C(O)[C@H]1C[C@H](C(=O)O)N1 (relative stereo) [trans-Azetidine-2,4-dicarboxylic acid] reads 0.0971
# In S-phase gammaH2AX median (Z-score), CN(C)CCC(c1ccccc1)c1ccccn1 (stereo not given) [Pheniramine maleate] reads -0.00473
# In S-phase gammaH2AX median (Z-score), CC1(C)NC(=O)N(c2ccc([N+](=O)[O-])c(C(F)(F)F)c2)C1=O [Nilutamide] reads -0.168
